The data set relates to HCT8 cells. Put plainly: Cytotoxicity on confluent monolayer HCT8 cells (Promega CellTiter Aqueous One MTS assay). The following applies: TC50 HCT8 relative to EC50 B. duncani. It is filed as cell-based, human. How it is done: Human HCT8 cells were grown in tissue culture flasks until a confluent monolayer was achieved. […] Cells were incubated with the drug for 48 hours. Promega CellTiter Aqueous One Solution Cell Proliferation Assay (MTS) (PRG3580) was commercially obtained and used to ascertain cell viability, with […] measured using a Biotek microplate reader. Cells incubated in 0.5% DMSO served as a positive growth control and comparator arm.
On the technique in general: Tetrazolium assays rely on reduction of a dye to a coloured formazan, in cell work by metabolically active cells.

With `Cn1cc(CNCC2CCN(c3ncc(C(=O)NO)cn3)CC2)c2ccccc21` [Quisinostat], the Therapeutic index is 38,000. Consider `Cc1[nH]c2ccccc2c1CCNCc1ccc(/C=C/C(=O)NO)cc1` [Panobinostat], for which the Therapeutic index was 16,000.

As to `O=C(NO)c1cnc(N2C[C@@H]3[C@H](C2)[C@H]3NCc2ccc3cc(F)ccc3n2)nc1` [Nanatinostat], the Therapeutic index was 1,900. `Nc1ccccc1NC(=O)c1ccc(CNC(=O)OCc2cccnc2)cc1` [Entinostat] showed a Therapeutic index of 5. `CCN(CC)Cc1ccc2cc(COC(=O)Nc3ccc(C(=O)NO)cc3)ccc2c1` [Givinostat] registered a Therapeutic index of 190.

`O=C(/C=C/c1cccc(S(=O)(=O)Nc2ccccc2)c1)NO` [Belinostat] came in with a Therapeutic index of 600.

Take `CCCCc1nc2cc(/C=C/C(=O)NO)ccc2n1CCN(CC)CC` [Pracinostat]: the Therapeutic index is 2,800. As for `O=C(/C=C/c1ccc(CN(CCO)CCc2c[nH]c3ccccc23)cc1)NO` [Dacinostat], the Therapeutic index is recorded as 6,600. `Nc1ccccc1NC(=O)c1ccc(CNc2nccc(-c3cccnc3)n2)cc1` [Mocetinostat]: the Therapeutic index is on record as 23.
